Laboratory results taken from US20200038411A1, “METHODS OF TREATING TESTOSTERONE DEFICIENCY” (priority 2017, published 2020).
At least one structure is not confirmed: it was looked up by name or label, or the drawing left a doubt.

Assay: Single 316 mg oral TU dose, T concentration-time profiles by sample collection tube type
Type: in vivo, human
Settings: post-dose
Procedure: Each study participant received a single oral TU dose containing 316 mg TU immediately prior to a standardized breakfast meal comprised of 800 to 1000 calories containing approximately 30 g of fat or about 25 to 30 percent fat. Subjects were instructed to consume the entire breakfast meal in no more than 30 minutes. Blood samples were collected 30 minutes prior to oral TU administration and at 0 (pre-dose), and 1, 2, 3, 4, 5, 6, 7, 8, 9, 10, 11 and 12 hrs post-dose. Because of the timed sample collections, all except for one subject entered the clinical research unit around 7 AM and spend the study period of 12 to 14 hours in the unit. […]
Blood samples collected in tubes were kept at room temperature for 30 minutes then centrifuged at 4° C. for 20 minutes at >1000 g. For each blood collection tube, serum was separated promptly after centrifugation and equal quantities of serum were transferred into 2 appropriately labelled polypropylene tubes. […]
Blood samples collected in tubes were immediately kept on ice for 30 minutes then centrifuged at 4° C. for 20 minutes at >1000 g. For each blood collection tube, serum was separated promptly after centrifugation and equal quantities of serum were transferred into 2 appropriately labelled polypropylene tubes. […]
The frozen samples were stored at −20° C. until assay. All samples from a single participant were analyzed in the same assay run. […]

CCCCCCCCCCC(=O)O[C@H]1CC[C@H]2[C@@H]3CCC4=CC(=O)CC[C@]4(C)[C@H]3CC[C@]12C [TU, testosterone undecanoate]
time when TU concentrations are at or near their peak values: 2 and 3
